The results in this text go back to patent US9072703B2 (Ipsen Pharma S.A.S., priority 2008, dated 2015).

The nature of one data set: general procedure: Fmoc solid-phase peptide synthesis; Pre-loaded Fmoc-Cys(Trt)-Wang or Fmoc-Gln(Trt)-Wang resin (0.59 mmole/g; Novabiochem); Rink amide MBHA resin for amides; HBTU/DIPEA. Particulars: whole synthesis.
The substance “[A6c^7, Orn^35(N—C(O)—(CH2)12—CH3)]hGIP(1-42)-OH” showed an isolated mass of 6.2 mg. The same measure, in the same setting: next, [A6c^7, Cys(Psu)^42]hGIP(1-42)-OH: 10.3 mg.

The data set is the same for the next values; noted with them: whole synthesis, HPLC, 250×4.6 mm C18 column (Phenomenex), 2-80% acetonitrile (0.1% TFA) over 30 minutes, scale of the general procedure 0.1 mmole.
Consider (A5c^11, Asn^43)hGIP(1-43)-OH, for which the “final HPLC purity” value is 99.90%. On to “[A6c^7, Orn^35(N—C(O)—(CH2)12—CH3)]hGIP(1-42)-OH”, for which the “crude HPLC purity” value is on record as 50% purity and the “final HPLC purity” value came out at 97.40%. For (A5c^11, His^43)hGIP(1-43)-OH, the “final HPLC purity” value was found to be 99.90%. Same read-out and setting: next, (A5c^11, 14)hGIP(1-30)-NH2: 99.9%; (A5c^11, Thr^43)hGIP(1-43)-OH: 99.90%. The same measure, in the same setting: next, (A5c^11, 41)hGIP(1-42)-OH: 99.00%. As to (A5c^11)hGIP(1-30)-NH2, the “final HPLC purity” value came to 96.7%. On the same count and under the same terms, next, (A5c^11, 41, Cys^43)hGIP(1-43)-NH2: 96.9%.

With (A5c^11, His^31)hGIP(1-31)-NH2, the “final HPLC purity” value came to 97.7%. The same measure, in the same setting: next, (A5c^11, 14, His^43)hGIP(1-43)-OH: 99.9%; (A5c^11, Ala^43)hGIP(1-43)-OH: 97.40%; (Aib^13, Trp^43)hGIP(1-43)-OH: 99.99%. Regarding (A5c^11, Nle^14, His^43)hGIP(1-43)-OH, the “final HPLC purity” value was found to be 99.9%. Same read-out and setting: next, (Aib^13, Nle^14, Phe^43)hGIP(1-43)-OH: 99.90%; “[A5c^11, Orn^33(N—C(O)—(CH2)10—CH3), His^43]hGIP(1-43)-OH”: 82.9%. Same read-out and setting: next, (A5c^11, 41, Cys^32)hGIP(1-42)-NH2: 95.5%; (A6c^7, 41)hGIP(1-42)-OH: 99.90%.

As for (Aib^13, Asp^43)hGIP(1-43)-NH2, the “final HPLC purity” value amounted to 99.90%. Still for that read-out and setting: next, (A5c^11, 41, Cys^33)hGIP(1-42)-NH2: 96.2%.

For the substance “[A5c^11, Orn^33(N—C(O)—(CH2)14—CH3), His^43]hGIP(1-43)-OH”, the “final HPLC purity” value was 93.0%. Turning to (Aib^13, A5c^40)hGIP(1-42)-OH, the “final HPLC purity” value is reported as 99.00%. As for [A6c^7, Cys(Psu)^42]hGIP(1-42)-OH, the “final HPLC purity” value worked out at 96.60%. For (A6c^11, 14, 40)hGIP(1-42)-OH, the “final HPLC purity” value worked out at 99.00%. The same measure, in the same setting: next, “[A5c^11, Lys^43(N—C(O)—(CH2)10—CH3)]hGIP(1-43)-OH”: 86.5%; (Aib^13, Nle^14, A5c^40)hGIP(1-42)-OH: 99.00%; (A5c^11, Ado^43)hGIP(1-43)-OH: 99.99%. The same measure, in the same setting: next, “[A6c^7, Orn^31(N—C(O)—(CH2)12—CH3)]hGIP(1-42)-OH”: 96.10%; “[A5c^11, Lys^43(N—C(O)—(CH2)14—CH3)]hGIP(1-43)-OH”: 95.5%. Consider (A6c^7, 41, Nle^14)hGIP(1-42)-OH, for which the “final HPLC purity” value worked out at 99.00%.

As for “[A5c^11, Orn^32(N—C(O)—(CH2)14—CH3), His^43]hGIP(1-43)-OH”, the “final HPLC purity” value came out at 90.6%. Same read-out and setting: next, (A5c^11, 40)hGIP(1-42)-OH: 98.00%; (A6c^11, 14, 41)hGIP(1-42)-OH: 98.00%; “[A5c^11, Orn^32(N—C(O)—(CH2)10—CH3), His^43]hGIP(1-43)-OH”: 92.2%.

The data set is the same for the next values; noted with them: whole synthesis, scale 0.1 mmole.
“[A6c^7, Orn^35(N—C(O)—(CH2)12—CH3)]hGIP(1-42)-OH”: the crude mass result is listed as “approximately 500 mg”.

Turning to [A6c^7, Cys(Psu)^42]hGIP(1-42)-OH, the crude mass result is “approximately 500 mg”.

The same data set, now with this note: whole synthesis, scale of the general procedure 0.1 mmole.
In turn, “[A6c^7, Orn^35(N—C(O)—(CH2)12—CH3)]hGIP(1-42)-OH” yielded an isolated yield of 1.2%. On to [A6c^7, Cys(Psu)^42]hGIP(1-42)-OH, for which the isolated yield stood at 2%.

The next data set in a line: peptide synthesis. The settings on record: whole synthesis.
As for “[A5c^11,41, Cys^43(succinimide-N-20K PEG)]hGIP(1-43)-NH2”, the “final HPLC purity” value is recorded as 99.9%.

With “[A5c^11,41, Cys^32(succinimide-N-20K PEG)]hGIP(1-42)-NH2”, the “final HPLC purity” value was found to be 99.9%. On the same count and under the same terms, next, “[A5c^11,41, Cys^43(succinimide-N-30K PEG)]hGIP(1-43)-NH2”: 99.9%.
